# Results taken from the supplement of paper PMC10032668.
# Sequences of proteins named here, by UniProt entry; tags and fusion partners are left off.
# ATP1B3, P54709, UniProt P54709, whole entry: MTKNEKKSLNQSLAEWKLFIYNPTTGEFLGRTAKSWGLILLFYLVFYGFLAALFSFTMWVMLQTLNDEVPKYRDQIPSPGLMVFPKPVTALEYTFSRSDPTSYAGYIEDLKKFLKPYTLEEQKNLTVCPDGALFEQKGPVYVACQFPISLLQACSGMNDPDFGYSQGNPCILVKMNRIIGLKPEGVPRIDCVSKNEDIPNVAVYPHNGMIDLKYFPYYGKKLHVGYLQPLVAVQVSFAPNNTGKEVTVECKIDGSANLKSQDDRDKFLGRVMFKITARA
# The list shows a part of the results. The list holds hits alone, and they repeat only in part.
# What was measured:
# Experiment in all cases: PRISMA enrichment of interactor (LFQ) in peptide spot vs all other peptide spots (log2 fold change); higher = stronger / more specific binding of the interactor to the peptide
# [1] = target: GABRA4, P48169
# Protocol: (§1)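 PRISMA: 15-aa overlapping tiles (offset 8 aa) of 60 microproteins, plus SOS1/GLUT1 control peptides, were spot-synthesized on cellulose membranes in triplicate. Membranes were incubated with benzonase-treated HEK293T lysate, and bound proteins were identified by LC-MS/MS with LFQ. Enrichment is the log2 fold change of each protein in one spot versus all other spots. Only interactors passing the significance cutoff are listed.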
# [2] = target: VKORC1, Q9BQB6
# Protocol: as §1
# [3] = target: SRBD1, Q8N5C6
# Protocol: as §1
# [4] = target: SARS2, Q9NP81
# Protocol: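 PRISMA: 221 full-length sORF-encoded peptides (3-15 aa), plus SOS1/GLUT1 control peptides, were spot-synthesized on cellulose membranes in triplicate. Membranes were incubated with HEK293T lysate, and bound proteins were identified by LC-MS/MS with LFQ. Enrichment is the log2 fold change versus all other peptide spots; only significant interactors are listed (cutoff c=6, x0=2.8).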
# [5] = target: ATP1B3, P54709
# Protocol: as §1
binder,measurement,setting,value
DSVRDRLPQDHSAPA [DANCR],PRISMA enrichment of interactor (log2),[1],4.65
SRTAGPAATWTGIQR [TBX5-AS1],PRISMA enrichment of interactor (log2),[2],6.26
GLQGVRSMSPLTKVQ [JPX],PRISMA enrichment of interactor (log2),[3],4.72
MAASRTVMAVGRRR [NF1],PRISMA enrichment of interactor (log2),[4],4.75
DIPEQDSLGLSNLQK,PRISMA enrichment of interactor (log2),[3],4.18
RDYKVLVVMVPLVGL,PRISMA enrichment of interactor (log2),[3],5.71
GPAWWVVSEVLAEQR [ABR],PRISMA enrichment of interactor (log2),[5],6.54
